Amino acid sequences for entries named in this document (tags omitted). A change or cut given only in a name is not applied to a line headed by its entry.
UniProt F4HUU5: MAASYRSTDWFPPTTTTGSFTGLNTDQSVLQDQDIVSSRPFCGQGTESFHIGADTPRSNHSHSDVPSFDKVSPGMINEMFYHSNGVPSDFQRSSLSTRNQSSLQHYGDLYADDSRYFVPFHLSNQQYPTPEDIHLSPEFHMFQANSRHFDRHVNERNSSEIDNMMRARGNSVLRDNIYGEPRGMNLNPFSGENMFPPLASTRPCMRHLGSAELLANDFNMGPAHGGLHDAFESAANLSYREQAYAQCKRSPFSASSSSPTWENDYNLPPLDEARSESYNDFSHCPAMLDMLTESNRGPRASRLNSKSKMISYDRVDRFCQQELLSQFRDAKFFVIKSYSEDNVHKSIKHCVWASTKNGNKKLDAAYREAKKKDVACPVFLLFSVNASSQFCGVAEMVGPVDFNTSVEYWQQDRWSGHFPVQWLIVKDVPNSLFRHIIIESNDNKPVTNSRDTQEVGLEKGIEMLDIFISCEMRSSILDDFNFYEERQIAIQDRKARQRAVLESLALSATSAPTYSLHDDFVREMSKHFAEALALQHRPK

In paper PMC10126281:

Tests used:
[1] = target: T1, mYFP-ECT1 (Arabidopsis thaliana) (UniProt Q3MK94); assay: co-IP; ECT9-FLAG and mYFP-ECT1 co-expressed in N. benthamiana leaves for 48 h; lysis buffer 50 mM Tris-HCl pH 7.4, 150 mM NaCl, 0.2% NP40, 0.1% Triton-100, 20 mM DTT; GFP-Trap_A beads 2 h at 4 °C; immunoblot with anti-GFP and anti-FLAG
T1 sequence: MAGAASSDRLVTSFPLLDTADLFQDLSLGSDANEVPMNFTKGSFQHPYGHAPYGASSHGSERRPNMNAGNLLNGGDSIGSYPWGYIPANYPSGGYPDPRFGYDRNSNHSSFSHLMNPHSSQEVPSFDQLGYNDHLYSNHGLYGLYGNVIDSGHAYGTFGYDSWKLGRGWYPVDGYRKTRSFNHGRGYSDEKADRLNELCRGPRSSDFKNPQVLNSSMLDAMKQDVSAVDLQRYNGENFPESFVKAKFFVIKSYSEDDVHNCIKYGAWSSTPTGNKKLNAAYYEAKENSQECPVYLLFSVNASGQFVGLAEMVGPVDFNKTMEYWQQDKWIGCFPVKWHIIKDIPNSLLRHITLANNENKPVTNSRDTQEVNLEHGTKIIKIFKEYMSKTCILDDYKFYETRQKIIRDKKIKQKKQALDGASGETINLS

[2] = target: nLUC-ECT9 (EVOLUTIONARILY CONSERVED C-TERMINAL REGION 9) (Arabidopsis thaliana) (UniProt F4HUU5); assay: split reporter; Split Luciferase Complementation Assay (SLCA): nLUC-ECT9 combined with cLUC fusions of the other 12 Arabidopsis YTH family members; host and conditions not told

Row | Molecule | binding [1] | binding [2]
1 | ECT9-FLAG (Arabidopsis thaliana) | binds | –
2 | cLUC-ECT1 (EVOLUTIONARILY CONSERVED C-TERMINAL REGION 1) (protein, UniProt Q3MK94 1-428) MAGAASSDRLVTSFPLLDTADLFQDLSLGSDANEVPMNFTKGSFQHPYGHAPYGASSHGSERRPNMNAGNLLNGGDSIGSYPWGYIPANYPSGGYPDPRFGYDRNSNHSSFSHLMNPHSSQEVPSFDQLGYNDHLYSNHGLYGLYGNVIDSGHAYGTFGYDSWKLGRGWYPVDGYRKTRSFNHGRGYSDEKADRLNELCRGPRSSDFKNPQVLNSSMLDAMKQDVSAVDLQRYNGENFPESFVKAKFFVIKSYSEDDVHNCIKYGAWSSTPTGNKKLNAAYYEAKENSQECPVYLLFSVNASGQFVGLAEMVGPVDFNKTMEYWQQDKWIGCFPVKWHIIKDIPNSLLRHITLANNENKPVTNSRDTQEVNLEHGTKIIKIFKEYMSKTCILDDYKFYETRQKIIRDKKIKQKKQALDGASGETINLS | – | binds
3 | cLUC fusion of ECT2 (protein, UniProt Q9LJE5 1-667) MATVAPPADQATDLLQKLSLDSPAKASEIPEPNKKTAVYQYGGVDVHGQVPSYDRSLTPMLPSDAADPSVCYVPNPYNPYQYYNVYGSGQEWTDYPAYTNPEGVDMNSGIYGENGTVVYPQGYGYAAYPYSPATSPAPQLGGEGQLYGAQQYQYPNYFPNSGPYASSVATPTQPDLSANKPAGVKTLPADSNNVASAAGITKGSNGSAPVKPTNQATLNTSSNLYGMGAPGGGLAAGYQDPRYAYEGYYAPVPWHDGSKYSDVQRPVSGSGVASSYSKSSTVPSSRNQNYRSNSHYTSVHQPSSVTGYGTAQGYYNRMYQNKLYGQYGSTGRSALGYGSSGYDSRTNGRGWAATDNKYRSWGRGNSYYYGNENNVDGLNELNRGPRAKGTKNQKGNLDDSLEVKEQTGESNVTEVGEADNTCVVPDREQYNKEDFPVDYANAMFFIIKSYSEDDVHKSIKYNVWASTPNGNKKLAAAYQEAQQKAGGCPIFLFFSVNASGQFVGLAEMTGPVDFNTNVEYWQQDKWTGSFPLKWHIVKDVPNSLLKHITLENNENKPVTNSRDTQEVKLEQGLKIVKIFKEHSSKTCILDDFSFYEVRQKTILEKKAKQTQKQVSEEKVTDEKKESATAESASKESPAAVQTSSDVKVAENGSVAKPVTGDVVANGC | – | no binding
4 | cLUC fusion of ECT3 (protein, UniProt F4K1Z0 1-495) MANPDHVSDVLHNLSIDPTTKALAPDSETKLQGAYGGNGNDFLLNDELVEATKIGKPSLLSKDGGVTKDKGSNLKKLGYQSAAYNAKGSYGKGAYAYGYYPPAYQYPRHGYTGSYASGKTNLQYQYLTQQGRSAGNGQSYGGYMDNIYSNYGMCGPYTNGYGYGSYGYDSWKYMPNWYAVNNTYKPRNGYHGYGKENIEGLNEMNRGPRAKGFNSQDGSKVMAVSLKEQRVTETEKLSEDVSLLDPKDYNKIDFPETYTEAKFYVIKSYSEDDIHKSIKYSVWSSTPNGNKKLDASYNEAKQKSDGCPVFLLFSVNTSGQFVGLAEMVGPVDFNKTVEYWQQDKWIGCFPVKWHFVKDIPNSSLRHITLENNENKPVTNSRDTQEVKLEQGIKVIKIFKDHASKTCILDDFEFYENRQKIIQERKSKHLQIKKQTLVANADKGVMSKINLVKPQESTTASEDAAALGVAAEVTKESKVVKETELPVEKNAVATAC | – | no binding
5 | cLUC fusion of ECT4 (protein, UniProt A0A1P8AS03 1-605) MSTVAPPADQAADVLKKLSLDSKSRTLEIPEPTKKTGVYQYGAMDSNGQVPSFDRSLSPMLPSDALDPSVFYVPNVYQQPYYYGYGSDYTGYTNSESVDMTSGAYGENASLVYPQGYGYAAFPYSPATSPAPQLGGDGQLYGAQQYQYPFPLTASSGPFASSVPASTQSKLSTNKAANSASAGIPKGMNGSAPVKPLNQSALYGNSALGGGLAAGYQDPRYSYDGFYTPVSWHDGSNFSDVQRSVSGSGVASSYSKANNNVPATRNQNSSSNSHYTSMYQPASMTGYAAQGYYDRVSPNKSYGQYGSTVRSGMGYGSSGYGSRTNERGWLNTDNKYRSRGRGNSYFYGNENIDGLNELNRGPRAKGTKATEEVSSEEVKKQTFDESNTEETVTCVLPDREECNRDDFPVEYKDAKFFIIKSYSEDDVHKSIKYNVWASTPNGNKKLDAAYQEAQQKSSGCPVFLFFSVNASGQFIGLAEMKGPVDFNKNIEYWQQDKWTGSFPLKWHILKDVPNSLLKHITLEYNENKPVTNSRDTQEVKLEQGLKVVKIFKEHNSKTCILDDFSFYEARQKTILEKKAKQQQSQKQVWEGKTNDEKPGTVDSTM | – | no binding

No constants are given. Whether binding was seen depends on the method and setting. Binding seen in cells or lysates may run through a third protein. A result given as binding can be weak or reduced; the word gives no strength. Tags and fused reporters may be left off the sequences shown.
